Measured values from the supplement of paper PMC5949888.
Most values lie at the floor of the assay. Slopes are relative: functional sequences can read slightly below zero.

The substances below were run on Saccharomyces cerevisiae PS128 hsf1 delta, HSF1(1-493) fusion (assay: growth estimate (transactivation domain function in HSF1 fusion, heat-shock survival) (a.u. (slope of normalised read count over time)); higher = stronger growth at 37°C, i.e. more transactivation activity). Conditions: library: random library.

| Substance | growth estimate |
| --- | --- |
| PAIPNRGYTVSGRGHTRVLA | < -0.25 |
| CAYRYL | < -0.25 |
| VTAAAIWVGDCEKPWT | < -0.25 |
| NPPGNSSES | < -0.25 |
| RNMRSVICTER | < -0.25 |
| RKRFGFKRAPPGAKPAGEWL | < -0.25 |
| SRFR | < -0.25 |
| CEFNVGNAHFASCVGVR | < -0.25 |
| SSA | < -0.25 |
| TSLGETTVWTNFG | < -0.25 |
| NRGSVNNLSFAH | < -0.25 |
| LVIEPFYWITSGQHSH | < -0.25 |
| QQSLIQRYRLKAPGRKRGRA | < -0.25 |
| MVMSCSSHSTCQLTGAL | < -0.25 |
| DTGELRHVRADGGWHRMDVS | < -0.25 |
| DGCRDRNSTGYGNIEVSLFG | < -0.25 |
| RVGVGRVRIPMRFYASVALS | < -0.25 |
| GVGVGRRWCQLS | < -0.25 |
| ALGENPEAY | < -0.25 |
| YREVFVSLLRGLQREGGYGS | < -0.25 |
| VRHLD | < -0.25 |
| VLPLHFAL | < -0.25 |
| SLVLRELVFEIKCNSMYIVR | < -0.25 |
| RDTMRVNGILNWEPMRRWGW | < -0.25 |
| NRQRGPMRVKGGRSSICLPS | < -0.25 |

2 records drawn at random from the list so far, as already listed:

| Substance | growth estimate |
| --- | --- |
| NPPGNSSES | < -0.25 |
| LVIEPFYWITSGQHSH | < -0.25 |

Further results.

| Substance | growth estimate |
| --- | --- |
| CQSSWRSLGLVGNQV | < -0.25 |
| PSMVPGGVADRQRPYSLLPN | < -0.25 |
| TSDGQGYIRPPARQFRKWR | < -0.25 |
| TVRPGLLDATSECRAGN | < -0.25 |
| EGQHHGEWSADTNGGLCRQR | < -0.25 |
| LRLLWVRLASYT | < -0.25 |
| NRLLEAGNMWT | < -0.25 |
| PPDGPYRHTGSPKIVQKVEL | < -0.25 |
| VPLSHGISERKTNGCFKPRS | < -0.25 |
| PLIYIPQRIPGN | < -0.25 |
| GTPR | < -0.25 |
| GSDLTNFFYVKPSMMPR | < -0.25 |
| SRRLPRESADVPVGIDGR | < -0.25 |
| ELGLEPWAPDRNNYDKLGIA | < -0.25 |
| PCNRALAWPRYIIFMWRGGP | < -0.25 |
| RRSTIALFGRGRRNLRGLTI | < -0.25 |
| WFLDHIGYI | < -0.25 |
| EHYTIRFGVRVYCGAIFGGA | < -0.25 |
| YHRVHQDVEADGP | -0.245 |
| TNRKGSLFWLSPPVRGYSVM | < -0.25 |
| ERVNRRVQNSFLVGAKRVST | < -0.25 |
| TKIGTSVSDNCCEKISRSSK | < -0.25 |
| LVGWRGQHTLVSFAQPQVIS | < -0.25 |
| LAYQLRPVI | < -0.25 |
| VGALSPMTSRPPCHSHGT | < -0.25 |

| Substance | growth estimate |
| --- | --- |
| GLTAVSGVSARAPPLLFNRL | < -0.25 |
| HIQRSPGYCHYRLAGSET | < -0.25 |
| LCV | < -0.25 |
| RDRVAS | < -0.25 |
| ECLFRHNVTGWHVQSSGIFG | < -0.25 |
| ACIQVQPSLTCGLGVPAYP | < -0.25 |
| YLLHSQTCIHLRTSDLTMRA | < -0.25 |
| QGHRLERRNSISVSEPYTKV | < -0.25 |
| VSSPWSFLYSLRSGL | < -0.25 |
| LAMKLLPRLASSIENYGDVV | -0.234 |
| SPGYTVPLCFYESLCSSGPQ | < -0.25 |
| KLAGRGINVLVRR | < -0.25 |
| GLRLLTRYAPHLHSRLG | < -0.25 |
| LGFG | < -0.25 |
| AIPSRKWPGLGSRIDVRWRL | < -0.25 |
| CKRLCGQVSSNTAGWFGE | < -0.25 |
| NYVRNSVERLSEHKHVSPSN | < -0.25 |
| SNRPKIILSWFSMLRTEHS | < -0.25 |
| RTDWLVWRICVKNPSQVVEG | < -0.25 |
| TRVRQLVC | < -0.25 |
| YPYRHCECNPGDTGMICRCV | -0.156 |
| APIVTLTSGPRGLTSSLRRG | < -0.25 |
| WNLTGLRGSYPRHRRVKPSS | < -0.25 |
| ALTAR | < -0.25 |
| QRTNAEIGDNR | < -0.25 |

| Substance | growth estimate |
| --- | --- |
| SVVTPHCESPEPCGTVAPIS | < -0.25 |
| IIDSNAVVSGT | < -0.25 |
| RNTLSNADKGCLSIHAVAGR | < -0.25 |
| VAGVTRSGMYLRLSVDLGRL | < -0.25 |
| QRAVRTPGVEKLQTAQRVAG | < -0.25 |
| PGILFSGPTVSHPKLG | < -0.25 |
| THIIIPSLRLCRRPS | < -0.25 |
| YQTFSLRPEIRVRRPEDSIF | < -0.25 |
| GEAITQLQVCTQGTVFVGQC | < -0.25 |
| RDMSVPVAIHQFL | < -0.25 |
| GGPRVRAGYLSHVLE | < -0.25 |
| RDCKNVRCLGF | < -0.25 |
| LDGRLSHFIS | < -0.25 |
| GSHKDLLTRALRRQVAAPKS | < -0.25 |
| EGSHRPYTEYQDLFDRSVTT | < -0.25 |
| MDSYR | < -0.25 |
| SGRS | < -0.25 |
| MGRDELRRSTGMVPIVDYYG | < -0.25 |
| VDVRFLLV | < -0.25 |
| SQETPMHRRSVRLITITSGV | < -0.25 |
| RSPDPSPTSQMRAGH | < -0.25 |
| PLVAFGIPRGPSWWGPCING | < -0.25 |
| NLRS | < -0.25 |
| LAERQYTTANAR | < -0.25 |
| CRCPEA | < -0.25 |

Reformatted: results already given.
LDGRLSHFIS
  growth estimate: < -0.25
GSHKDLLTRALRRQVAAPKS
  growth estimate: < -0.25
EGSHRPYTEYQDLFDRSVTT
  growth estimate: < -0.25
MDSYR
  growth estimate: < -0.25

Exported as tab-separated lines: entries from further up
Substance	growth estimate
GTPR	< -0.25
GSDLTNFFYVKPSMMPR	< -0.25
SRRLPRESADVPVGIDGR	< -0.25

Going on with the list.

| Substance | growth estimate |
| --- | --- |
| RMLL | < -0.25 |
| RIEGAHS | < -0.25 |
| VLRVLVTGTTNKCPIECSSA | < -0.25 |
| ADVGCGHGRYMGPLWVRDTQ | < -0.25 |
| FREAGKGSPKSRTGTTES | < -0.25 |
| VDPRE | < -0.25 |
| AGLPTPISTPLGTRRSRALL | < -0.25 |
| GILDSCQGSPEL | < -0.25 |
| PLSGLQQVRSVWQCCSLQSA | < -0.25 |
| GEPSHPLLLARRQAGRTGSC | < -0.25 |
| ASLNTVRSAGALGTCISTVA | < -0.25 |
| QEAH | < -0.25 |
| TRRA | < -0.25 |
| IGVLYGLRVVKTCAGMPSSV | < -0.25 |
| LQDEC | < -0.25 |
| SDWPRNSVGPYPATRCSGVP | < -0.25 |
| IMNSGGSTGGTPAMSLQRSL | -0.246 |
| VRRSIKR | < -0.25 |
| DVPLRGCRYGRIMVVPGLPT | < -0.25 |
| SLHEACHLKECRSLNRRVRW | < -0.25 |
| DNAIR | < -0.25 |
| FAPD | < -0.25 |
| ETRIALQLKCLDELLGSL | 0.141 |
| IFKCGLVVLGRCLVLLGDVC | < -0.25 |
| LETGTLGSTPVVKRCEVQSD | < -0.25 |

| Substance | growth estimate |
| --- | --- |
| SVRCYL | < -0.25 |
| HYQSARSVYLKMQQGCDRVG | < -0.25 |
| LLR | < -0.25 |
| RLNLFS | < -0.25 |
| ALGTSR | < -0.25 |
| LVFPWYQKHKMMGISTSNTR | < -0.25 |
| APRWRWGSYASFHMTAMFRN | < -0.25 |
| SGGNANDSALCSPLCRLKHA | < -0.25 |
| HRAMEDGTTKCYRRAHPPLA | < -0.25 |
| RDPF | < -0.25 |
| ALPTAIQVH | < -0.25 |
| QDSQWC | < -0.25 |
| VFEVLCTACISVGEVTHARP | < -0.25 |
| SIYFGQGRDRGCAWYIAQVS | < -0.25 |
| SALKLLVG | -0.243 |
| HCYEVQKEAEWGKSAKGRYC | < -0.25 |
| PAKGSGGLLVGGGRPVDRKD | < -0.25 |
| TTQPDRLSSGVNRWMLSGQI | < -0.25 |
| RIIRETLNLRQAPVQILSRL | < -0.25 |
| SGEMSWQIADYGIRGHQGSV | < -0.25 |
| HCHRIQRHLKSAEHVED | < -0.25 |
| LPLLRNAALGARVGCMVWVM | -0.246 |
| RYLGSLRVAY | < -0.25 |
| VLST | < -0.25 |
| EPVDPVKRTNVYIDTEMAWF | < -0.25 |

| Substance | growth estimate |
| --- | --- |
| RPD | < -0.25 |
| PGGRLCRIPLCS | < -0.25 |
| YVRVQVYRASKCETLYQPF | < -0.25 |
| YNSNS | < -0.25 |
| SRSTVIRCGNRKYRLPIGVP | < -0.25 |
| RRCECEL | < -0.25 |
| QYPSERCSCPKRHSRASFQ | < -0.25 |
| PFNLSSSILLHPRVVKVGDV | < -0.25 |
| CCSPAH | < -0.25 |
| NDGMRHGYHAICRGFNLLIN | < -0.25 |
| GIRIAIFAD | < -0.25 |
| GRDSLWYSSAIVLHHGMIET | < -0.25 |
| IHVLSSCR | < -0.25 |
| SGYAIGLMTSRNISKFSQCA | < -0.25 |
| DSGGNLDHGIIGRYEQQSNA | < -0.25 |
| DGAAKAGSCQHVMPFATLIR | < -0.25 |
| LGIITLSRVGR | < -0.25 |
| GAVSRLTGKPRCESGSEEAH | < -0.25 |
| WIPIRTALFFLSFRLTNIAS | < -0.25 |
| FARNGPVTRSSIRAASVRRE | < -0.25 |
| LVATWAPRRAMTPNGVVETN | < -0.25 |
| VFPFGVRLQGVSKMGAP | < -0.25 |
| RPRGVGPGRGPEL | < -0.25 |
| GTSGSFDLCRVRLCYKKGPL | < -0.25 |
| SMVHAKGINLVISRSHLGAE | < -0.25 |

| Substance | growth estimate |
| --- | --- |
| ICLHVISTCAAPVHDSSGYA | < -0.25 |
| SCPGGSRVGLLQRVVAGTPP | < -0.25 |
| EIRFRGIAFPTFICLTALGR | -0.248 |
| CCKSAHK | < -0.25 |
| PGLRIRQFSYSGPRLDCMFF | < -0.25 |
| NPFKEIPV | < -0.25 |
| CVSRSKVQ | -0.226 |
| IRGPRQLARSLAFGSTAGGS | < -0.25 |
| LTYRSV | < -0.25 |
| FGLIYERE | < -0.25 |
| LRVFTASWRVSAKSSIIQGA | < -0.25 |
| WLCGKSLG | < -0.25 |
| ERMEFDTPQSQATDEGRRRA | < -0.25 |
| CEVYVKLWVLSEQEQCRRFS | -0.245 |
| NVSFARKDLNGIEVLN | -0.245 |
| PETRISILLRGTLARKMPVD | < -0.25 |
| GQKFRMIDGLPNAACDRTPV | < -0.25 |
| CLAVRCRVTKP | < -0.25 |
| RCALQVCPLSQGSARSYPAP | < -0.25 |
| LARYKTQTKSRQDISASSKT | < -0.25 |
| KRIGWLYNSSGQP | < -0.25 |
